Measured values published in patent US20020114804A1, “A METHOD OF TREATING INFECTION OF SUTURES AND PROSTHETIC DEVICES” (priority 1996, published 2002).

Tested on: Matrigel-coated filters
Test: Binding of radiolabeled tenascin to Matrigel-coated filters
Procedure: Chick tenascin was radiolabeled using chloramine T (67), and mixed with unlabeled tenascin at a 1:100 protein ratio. 250 μl of PBS containing varying amounts of this mixture was added to inserts coated with Matrigel or collagen I. The inserts were incubated at room temperature for 4 h at 37° C. in a humidified 95%air/5% CO2 atmosphere and washed with PBS. The filters were cut from the inserts with a scalpel, and assayed for 125I in a Beckman gamma counter.

chick brain tenascin: tenascin purified from 14-day embryonic chick brains
125I-labeled tenascin eluted from the filters (4-6 h incubation at 37° C.): less than 1% | Tenascin remained bound to Matrigel-coated filter (4-6 h incubation at 37° C.): ~99% | Tenascin adsorbed per filter (at near plateau binding): about 0.2 μg
